Measured values published in article PMC9412414, “A Study on Repositioning Nalidixic Acid via Lanthanide Complexation: Synthesis, Characterization, Cytotoxicity and DNA/Protein Binding Studies” (Pharmaceuticals, 2022).

tested on: EB–DNA system (CT-DNA); test: Competitive binding assay with ethidium bromide (EB) through fluorescence spectroscopy; design: species or system calf; details: EB 2 µM, CT-DNA 10 µM, compound 0–40 µM

| Molecule | EB Displacement Assay n (Hill coefficient) |
| --- | --- |
| CCn1cc(C(=O)[O-])c(=O)c2ccc(C)nc21.CCn1cc(C(=O)[O-])c(=O)c2ccc(C)nc21.O.[OH-].[Tb+3] [Tb(nal)2, Tb(C12H11N2O3)2(OH)(H2O)·1.5H2O] | 2.50 ± 0.96 |
| CCn1cc(C(=O)[O-])c(=O)c2ccc(C)nc21.CCn1cc(C(=O)[O-])c(=O)c2ccc(C)nc21.O.O.O.[La+3].[OH-] [La(nal)2, La(C12H11N2O3)2(OH)(H2O)·2H2O] | 2.20 ± 0.81 |
| CCn1cc(C(=O)O)c(=O)c2ccc(C)nc21 [Nalidixic acid] | 2.18 ± 0.30 |
| CCn1cc(C(=O)[O-])c(=O)c2ccc(C)nc21.CCn1cc(C(=O)[O-])c(=O)c2ccc(C)nc21.O.O.O.O.[Eu+3].[OH-] [Eu(nal)2, Eu(C12H11N2O3)2(OH)(H2O)·3H2O] | 2.81 ± 0.38 |
| CCn1cc(C(=O)[O-])c(=O)c2ccc(C)nc21.CCn1cc(C(=O)[O-])c(=O)c2ccc(C)nc21.O.O.O.O.[Gd+3].[OH-] [Gd(nal)2, Gd(C12H11N2O3)2(OH)(H2O)·3H2O] | 2.33 ± 0.72 |
| Eu(C12H11N2O3)3(H2O)2·2.5H2O [Eu(nal)3] | 1.98 ± 0.95 |
| CCn1cc(C(=O)[O-])c(=O)c2ccc(C)nc21.CCn1cc(C(=O)[O-])c(=O)c2ccc(C)nc21.O.O.O.O.[OH-].[Sm+3] [Sm(nal)2, Sm(C12H11N2O3)2(OH)(H2O)·3H2O] | 2.96 ± 0.77 |
| Gd(C12H11N2O3)3(H2O)2·1.5H2O [Gd(nal)3] | 3.33 ± 1.43 |
| CCn1cc(C(=O)[O-])c(=O)c2ccc(C)nc21.CCn1cc(C(=O)[O-])c(=O)c2ccc(C)nc21.CCn1cc(C(=O)[O-])c(=O)c2ccc(C)nc21.O.O.O.O.O.O.O.O.[La+3] [La(nal)3, La(C12H11N2O3)3(H2O)2·6H2O] | 2.17 ± 0.99 |
| Tb(C12H11N2O3)3(H2O)2·1.5H2O [Tb(nal)3] | 2.60 ± 1.21 |
